# Assay results from the supplement of paper PMC8728848.
# Some of the results follow.
# B1: PX9937I-bfa-538-26-538 (Bacteroides fragilis) (protein)
# chain: DKLDLSPIDYYGSGSYWKTEAQATAYIDGIHKHLRDAAWQHTITFGELRGGRFITGASSDGMGVSNGDIILQNFDETHTGVSKFGDLFGRITNLNLFIARVTDATYLSDEMKNFYLGEVYGLRAFYYFDLYRIYGGVPLRLTADVVEGVIDPNKLYMARSTPKEVMTQIKSDLNKSMEYFGNMNDFDPYKRGKKVYWSKAATECLMGEVYLWTSKVTTGDDVANPADLTIAKTHLESVLNNYNLKMLDDFSQVFNAKNKANDEIIFAIRFLEGEATNSNGTFTYNVGTGSTKNRYQANGEVFGDALDIQNTGNQTYEYNKAVYQNFDDADTRKEATFIASYNKDGKTGELSLYGTHVRKNIGYVNAQGARVYCGDYIFYRLPWVYLTLAEIANMEGDNAAVAKYINLVRKRAYGNAWDETLYAYPETADFTTNELAILHEKDKEFIQEGQRWWDLRRMTLTKGGTPLVFCKEGSLLGDAPILNKSTEAHKLLWPIEKTMLNKDPALEQTPGYK
# Assays:
# Test in all cases: glycan array binding signal (z-score within array); higher = stronger binding
# Conditions in all cases: glycan notation: IUPAC condensed, linker removed
# [1] = target: Man(a1-3)[Man(a1-6)]Man(a1-6)[Man(a1-3)]Man
# Outline: (§1)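 The Consortium for Functional Glycomics database supplied 3228 glycan arrays, of which those lacking an available protein sequence were dropped. The binding signal, a within-array Z-score, was averaged across arrays of the same protein sequence and across linkers. Negative scores can be read as non-binding.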
# [2] = target: Man(a1-3)[Man(a1-6)]Man(a1-6)[Man(a1-3)]Man(b1-4)GlcNAc(b1-4)GlcNAc
# Outline: as §1
# [3] = target: Man(a1-3)[Man(a1-6)]Man(b1-4)GlcNAc(b1-4)GlcNAc
# Outline: as §1
# [4] = target: Man(a1-3)[Man(a1-6)]Man(b1-4)GlcNAc(b1-4)[Fuc(a1-6)]GlcNAc
# Outline: as §1
# Man(a1-6)Man = target: Man(a1-6)Man
# Outline: as §1
# Man(b1-4)GlcNAc = target: Man(b1-4)GlcNAc
# Outline: as §1
# MurNAc(b1-4)GlcNAc = target: MurNAc(b1-4)GlcNAc
# Outline: as §1
# Neu5Ac(a2-3)Gal = target: Neu5Ac(a2-3)Gal
# Outline: as §1
# [5] = target: Neu5Ac(a2-3)Gal(b1-3)GalNAc
# Outline: as §1
# [6] = target: Neu5Ac(a2-3)Gal(b1-3)GalNAc(b1-3)Gal(a1-4)Gal(b1-4)Glc
# Outline: as §1
# [7] = target: Neu5Ac(a2-3)Gal(b1-3)GalNAc(b1-4)[Neu5Ac(a2-3)]Gal(b1-4)Glc
# Outline: as §1
# [8] = target: Neu5Ac(a2-3)Gal(b1-3)GalNAc(b1-4)[Neu5Ac(a2-8)Neu5Ac(a2-3)]Gal(b1-4)Glc
# Outline: as §1
# [9] = target: Neu5Ac(a2-3)Gal(b1-3)GalNAc6S
# Outline: as §1
# [10] = target: Neu5Ac(a2-3)Gal(b1-3)GlcNAc
# Outline: as §1
# [11] = target: Neu5Ac(a2-3)Gal(b1-3)GlcNAc(b1-2)Man
# Outline: as §1
# [12] = target: Neu5Ac(a2-3)Gal(b1-3)GlcNAc(b1-2)Man(a1-3)[GlcNAc(b1-4)][Neu5Ac(a2-3)Gal(b1-3)GlcNAc(b1-2)Man(a1-6)]Man(b1-4)GlcNAc(b1-4)GlcNAc
# Outline: as §1
# [13] = target: Neu5Ac(a2-3)Gal(b1-3)GlcNAc(b1-2)Man(a1-3)[Neu5Ac(a2-3)Gal(b1-3)GlcNAc(b1-2)Man(a1-6)]Man(b1-4)GlcNAc(b1-4)GlcNAc
# Outline: as §1
# [14] = target: Neu5Ac(a2-3)Gal(b1-3)GlcNAc(b1-3)Gal(b1-3)GlcNAc
# Outline: as §1
# [15] = target: Neu5Ac(a2-3)Gal(b1-3)GlcNAc(b1-3)Gal(b1-4)GlcNAc
# Outline: as §1
# [16] = target: Neu5Ac(a2-3)Gal(b1-3)GlcNAc(b1-3)GalNAc
# Outline: as §1
# [17] = target: Neu5Ac(a2-3)Gal(b1-3)GlcNAc(b1-4)Gal(b1-4)Glc
# Outline: as §1
# [18] = target: Neu5Ac(a2-3)Gal(b1-3)GlcNAc(b1-6)GalNAc
# Outline: as §1
# [19] = target: Neu5Ac(a2-3)Gal(b1-3)GlcNAc6S
# Outline: as §1
# [20] = target: Neu5Ac(a2-3)Gal(b1-3)[Fuc(a1-4)]GlcNAc
# Outline: as §1
# [21] = target: Neu5Ac(a2-3)Gal(b1-3)[Fuc(a1-4)]GlcNAc(b1-3)Gal(b1-3)[Fuc(a1-4)]GlcNAc
# Outline: as §1
# [22] = target: Neu5Ac(a2-3)Gal(b1-3)[Fuc(a1-4)]GlcNAc(b1-3)Gal(b1-4)[Fuc(a1-3)]GlcNAc
# Outline: as §1
# [23] = target: Neu5Ac(a2-3)Gal(b1-3)[GlcNAc(b1-6)]GalNAc
# Outline: as §1
# [24] = target: Neu5Ac(a2-3)Gal(b1-3)[Neu5Ac(a2-6)]GalNAc
# Outline: as §1
# [25] = target: Neu5Ac(a2-3)Gal(b1-3)[Neu5Ac(a2-6)]GlcNAc(b1-3)[Fuc(a1-3)[Gal(b1-4)]GlcNAc(b1-6)]Gal(b1-4)Glc
# Outline: as §1
# [26] = target: Neu5Ac(a2-3)Gal(b1-3)]Neu5Ac(a2-3)Gal(b1-4)]GlcNAc
# Outline: as §1
# Neu5Ac(a2-3)Gal(b1-4)Glc = target: Neu5Ac(a2-3)Gal(b1-4)Glc
# Outline: as §1
# [27] = target: Neu5Ac(a2-3)Gal(b1-4)GlcNAc
# Outline: as §1
# [28] = target: Neu5Ac(a2-3)Gal(b1-4)GlcNAc(b1-2)Man
# Outline: as §1
# [29] = target: Neu5Ac(a2-3)Gal(b1-4)GlcNAc(b1-2)Man(a1-3)[GlcNAc(b1-4)][Neu5Ac(a2-3)Gal(b1-4)GlcNAc(b1-2)Man(a1-6)]Man(b1-4)GlcNAc(b1-4)GlcNAc
# Outline: as §1
# [30] = target: Neu5Ac(a2-3)Gal(b1-4)GlcNAc(b1-2)Man(a1-3)[Neu5Ac(a2-3)Gal(b1-4)GlcNAc(b1-2)Man(a1-6)]Man(b1-4)GlcNAc(b1-4)GlcNAc
# Outline: as §1
# [31] = target: Neu5Ac(a2-3)Gal(b1-4)GlcNAc(b1-2)Man(a1-3)[Neu5Ac(a2-3)Gal(b1-4)GlcNAc(b1-2)Man(a1-6)]Man(b1-4)GlcNAc(b1-4)[Fuc(a1-6)]GlcNAc
# Outline: as §1
# [32] = target: Neu5Ac(a2-3)Gal(b1-4)GlcNAc(b1-2)Man(a1-3)[Neu5Ac(a2-6)Gal(b1-4)GlcNAc(b1-2)Man(a1-6)]Man(b1-4)GlcNAc(b1-4)GlcNAc
# Outline: as §1
# [33] = target: Neu5Ac(a2-3)Gal(b1-4)GlcNAc(b1-2)[Neu5Ac(a2-3)Gal(b1-4)GlcNAc(b1-4)]Man(a1-3)[GlcNAc(b1-4)][Neu5Ac(a2-3)Gal(b1-4)GlcNAc(b1-2)[Neu5Ac(a2-3)Gal(b1-4)GlcNAc(b1-6)]Man(a1-6)]Man(b1-4)GlcNAc(b1-4)GlcNAc
# Outline: as §1
binder,measurement,setting,value
B1,glycan array binding signal (z-score),[1],1.93
same,glycan array binding signal (z-score),[2],-0.112
same,glycan array binding signal (z-score),[3],-0.238
same,glycan array binding signal (z-score),[4],0.485
same,glycan array binding signal (z-score),Man(a1-6)Man,-0.362
same,glycan array binding signal (z-score),Man(b1-4)GlcNAc,2.04
same,glycan array binding signal (z-score),MurNAc(b1-4)GlcNAc,-0.733
same,glycan array binding signal (z-score),Neu5Ac(a2-3)Gal,0.196
same,glycan array binding signal (z-score),[5],-0.717
same,glycan array binding signal (z-score),[6],-1
same,glycan array binding signal (z-score),[7],-0.247
same,glycan array binding signal (z-score),[8],0.916
same,glycan array binding signal (z-score),[9],0.703
same,glycan array binding signal (z-score),[10],-0.606
same,glycan array binding signal (z-score),[11],-0.689
same,glycan array binding signal (z-score),[12],-0.678
same,glycan array binding signal (z-score),[13],-0.238
same,glycan array binding signal (z-score),[14],-0.393
same,glycan array binding signal (z-score),[15],0.23
same,glycan array binding signal (z-score),[16],-0.596
same,glycan array binding signal (z-score),[17],0.537
same,glycan array binding signal (z-score),[18],-0.924
same,glycan array binding signal (z-score),[19],-0.527
same,glycan array binding signal (z-score),[20],-1.07
same,glycan array binding signal (z-score),[21],-1.26
same,glycan array binding signal (z-score),[22],-0.252
same,glycan array binding signal (z-score),[23],0.112
same,glycan array binding signal (z-score),[24],-1.09
same,glycan array binding signal (z-score),[25],-0.319
same,glycan array binding signal (z-score),[26],-0.114
same,glycan array binding signal (z-score),Neu5Ac(a2-3)Gal(b1-4)Glc,0.09
same,glycan array binding signal (z-score),[27],-0.113
same,glycan array binding signal (z-score),[28],0.241
same,glycan array binding signal (z-score),[29],-0.205
same,glycan array binding signal (z-score),[30],-0.226
same,glycan array binding signal (z-score),[31],-0.552
same,glycan array binding signal (z-score),[32],-1.6
same,glycan array binding signal (z-score),[33],-0.426

# 8 successive entries out of the list so far, for reference:
binder,measurement,setting,value
B1,glycan array binding signal (z-score),[19],-0.527
same,glycan array binding signal (z-score),[20],-1.07
same,glycan array binding signal (z-score),[21],-1.26
same,glycan array binding signal (z-score),[22],-0.252
same,glycan array binding signal (z-score),[23],0.112
same,glycan array binding signal (z-score),[24],-1.09
same,glycan array binding signal (z-score),[25],-0.319
same,glycan array binding signal (z-score),[26],-0.114
